# Source: the supplement of paper PMC12819154, “High-throughput peptide-centric local stability assay extends protein–ligand identification to membrane proteins, tissues and bacteria” (Nature Structural & Molecular Biology, 2025)
# Protein sequences, listed by entry. Tags and fused reporters are not part of them. Lines headed by an entry give the natural chain unless they say otherwise; changes in a name come on top.
# UniProt P49813: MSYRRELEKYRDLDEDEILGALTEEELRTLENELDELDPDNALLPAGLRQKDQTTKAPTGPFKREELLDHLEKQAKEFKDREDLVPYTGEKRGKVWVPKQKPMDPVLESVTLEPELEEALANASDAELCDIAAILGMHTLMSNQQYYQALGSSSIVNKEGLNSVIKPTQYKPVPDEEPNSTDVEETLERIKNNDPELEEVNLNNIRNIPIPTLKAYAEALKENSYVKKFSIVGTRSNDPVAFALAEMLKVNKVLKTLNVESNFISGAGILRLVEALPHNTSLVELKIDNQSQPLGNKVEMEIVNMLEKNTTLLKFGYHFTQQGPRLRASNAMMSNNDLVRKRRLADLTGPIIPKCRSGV
# UniProt P52432, whole entry: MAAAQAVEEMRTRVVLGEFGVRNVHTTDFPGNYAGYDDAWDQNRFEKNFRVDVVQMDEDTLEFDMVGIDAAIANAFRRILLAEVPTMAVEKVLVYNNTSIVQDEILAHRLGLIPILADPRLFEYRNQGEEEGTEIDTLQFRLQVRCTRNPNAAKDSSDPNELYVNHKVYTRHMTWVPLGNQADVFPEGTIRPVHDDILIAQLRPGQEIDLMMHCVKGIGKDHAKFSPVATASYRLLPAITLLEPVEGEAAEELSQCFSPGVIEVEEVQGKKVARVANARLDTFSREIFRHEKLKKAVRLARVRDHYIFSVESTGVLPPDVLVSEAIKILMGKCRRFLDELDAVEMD
# UniProt P53810: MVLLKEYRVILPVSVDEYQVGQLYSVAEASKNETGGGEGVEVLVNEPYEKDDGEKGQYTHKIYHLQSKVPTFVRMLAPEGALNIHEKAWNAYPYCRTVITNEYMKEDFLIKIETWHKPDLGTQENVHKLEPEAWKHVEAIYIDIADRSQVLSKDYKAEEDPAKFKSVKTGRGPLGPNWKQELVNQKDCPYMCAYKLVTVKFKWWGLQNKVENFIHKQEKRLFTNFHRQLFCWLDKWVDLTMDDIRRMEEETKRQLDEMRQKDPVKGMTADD
# UniProt P42128: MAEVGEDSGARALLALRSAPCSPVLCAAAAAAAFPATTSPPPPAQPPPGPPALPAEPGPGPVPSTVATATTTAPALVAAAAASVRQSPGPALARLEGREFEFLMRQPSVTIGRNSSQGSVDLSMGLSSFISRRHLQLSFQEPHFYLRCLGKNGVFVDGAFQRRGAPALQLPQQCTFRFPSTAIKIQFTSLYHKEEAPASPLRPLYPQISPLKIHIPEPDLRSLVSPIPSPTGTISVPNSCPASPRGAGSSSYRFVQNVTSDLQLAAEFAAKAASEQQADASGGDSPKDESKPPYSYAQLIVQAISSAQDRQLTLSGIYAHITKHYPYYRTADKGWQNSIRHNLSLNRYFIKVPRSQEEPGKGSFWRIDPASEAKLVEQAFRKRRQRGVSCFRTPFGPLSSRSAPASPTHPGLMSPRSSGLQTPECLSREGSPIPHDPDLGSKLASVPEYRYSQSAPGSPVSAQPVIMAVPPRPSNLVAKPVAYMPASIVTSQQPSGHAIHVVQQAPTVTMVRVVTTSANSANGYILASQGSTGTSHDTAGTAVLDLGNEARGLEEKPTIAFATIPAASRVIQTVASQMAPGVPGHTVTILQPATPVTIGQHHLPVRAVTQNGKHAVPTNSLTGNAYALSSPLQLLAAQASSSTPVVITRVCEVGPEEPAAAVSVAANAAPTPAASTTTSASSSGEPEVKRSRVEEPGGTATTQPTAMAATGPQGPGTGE
# UniProt P53349: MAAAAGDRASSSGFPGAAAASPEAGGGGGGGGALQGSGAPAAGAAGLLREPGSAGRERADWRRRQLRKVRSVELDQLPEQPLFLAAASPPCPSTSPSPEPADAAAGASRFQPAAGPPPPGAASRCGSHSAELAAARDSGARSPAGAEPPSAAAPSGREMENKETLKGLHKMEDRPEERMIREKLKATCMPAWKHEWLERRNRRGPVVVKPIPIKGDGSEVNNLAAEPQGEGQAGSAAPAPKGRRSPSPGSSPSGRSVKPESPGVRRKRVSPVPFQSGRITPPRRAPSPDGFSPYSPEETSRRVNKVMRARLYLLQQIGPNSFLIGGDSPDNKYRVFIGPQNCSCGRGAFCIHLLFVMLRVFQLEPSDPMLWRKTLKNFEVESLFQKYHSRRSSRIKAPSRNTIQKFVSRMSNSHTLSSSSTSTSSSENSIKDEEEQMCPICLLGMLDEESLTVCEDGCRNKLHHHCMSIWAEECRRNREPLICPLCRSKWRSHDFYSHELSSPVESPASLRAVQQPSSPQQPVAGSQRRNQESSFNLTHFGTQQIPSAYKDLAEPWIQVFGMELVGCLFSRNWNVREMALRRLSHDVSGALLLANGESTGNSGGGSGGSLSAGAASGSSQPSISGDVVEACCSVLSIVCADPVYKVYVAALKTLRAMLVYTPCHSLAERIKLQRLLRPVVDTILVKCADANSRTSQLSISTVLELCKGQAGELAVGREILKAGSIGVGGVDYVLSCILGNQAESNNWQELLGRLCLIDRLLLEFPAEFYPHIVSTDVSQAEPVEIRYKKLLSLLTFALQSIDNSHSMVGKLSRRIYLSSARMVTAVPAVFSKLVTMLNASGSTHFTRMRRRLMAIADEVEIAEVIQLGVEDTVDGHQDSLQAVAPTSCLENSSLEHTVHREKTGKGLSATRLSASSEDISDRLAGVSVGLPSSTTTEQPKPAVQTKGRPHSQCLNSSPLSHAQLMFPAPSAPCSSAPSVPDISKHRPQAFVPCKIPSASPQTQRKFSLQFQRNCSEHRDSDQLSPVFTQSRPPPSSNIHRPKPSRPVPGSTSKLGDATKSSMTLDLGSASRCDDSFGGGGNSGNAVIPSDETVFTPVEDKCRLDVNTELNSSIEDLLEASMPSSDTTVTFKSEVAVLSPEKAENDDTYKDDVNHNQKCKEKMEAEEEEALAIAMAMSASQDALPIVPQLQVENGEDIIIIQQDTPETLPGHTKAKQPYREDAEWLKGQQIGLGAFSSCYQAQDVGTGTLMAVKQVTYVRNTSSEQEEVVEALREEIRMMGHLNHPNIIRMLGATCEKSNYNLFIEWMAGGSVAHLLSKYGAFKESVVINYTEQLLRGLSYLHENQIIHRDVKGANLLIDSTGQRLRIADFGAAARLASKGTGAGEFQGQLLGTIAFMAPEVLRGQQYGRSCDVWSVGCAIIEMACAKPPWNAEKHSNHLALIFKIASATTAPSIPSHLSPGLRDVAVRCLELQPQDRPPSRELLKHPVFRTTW
# UniProt P35456: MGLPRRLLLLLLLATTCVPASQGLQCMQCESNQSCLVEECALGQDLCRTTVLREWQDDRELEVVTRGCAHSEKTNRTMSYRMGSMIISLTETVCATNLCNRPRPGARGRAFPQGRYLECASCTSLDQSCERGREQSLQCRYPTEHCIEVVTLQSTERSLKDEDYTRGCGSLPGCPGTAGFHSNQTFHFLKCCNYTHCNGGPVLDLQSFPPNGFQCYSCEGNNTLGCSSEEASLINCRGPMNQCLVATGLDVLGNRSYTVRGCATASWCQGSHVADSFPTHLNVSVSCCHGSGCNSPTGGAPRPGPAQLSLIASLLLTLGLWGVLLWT
# UniProt P43276, whole entry: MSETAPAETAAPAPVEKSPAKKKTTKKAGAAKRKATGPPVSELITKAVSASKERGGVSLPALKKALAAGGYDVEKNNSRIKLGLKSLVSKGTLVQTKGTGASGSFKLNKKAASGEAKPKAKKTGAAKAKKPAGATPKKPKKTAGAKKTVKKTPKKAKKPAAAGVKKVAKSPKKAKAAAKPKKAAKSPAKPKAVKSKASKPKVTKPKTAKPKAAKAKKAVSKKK
# UniProt P41234: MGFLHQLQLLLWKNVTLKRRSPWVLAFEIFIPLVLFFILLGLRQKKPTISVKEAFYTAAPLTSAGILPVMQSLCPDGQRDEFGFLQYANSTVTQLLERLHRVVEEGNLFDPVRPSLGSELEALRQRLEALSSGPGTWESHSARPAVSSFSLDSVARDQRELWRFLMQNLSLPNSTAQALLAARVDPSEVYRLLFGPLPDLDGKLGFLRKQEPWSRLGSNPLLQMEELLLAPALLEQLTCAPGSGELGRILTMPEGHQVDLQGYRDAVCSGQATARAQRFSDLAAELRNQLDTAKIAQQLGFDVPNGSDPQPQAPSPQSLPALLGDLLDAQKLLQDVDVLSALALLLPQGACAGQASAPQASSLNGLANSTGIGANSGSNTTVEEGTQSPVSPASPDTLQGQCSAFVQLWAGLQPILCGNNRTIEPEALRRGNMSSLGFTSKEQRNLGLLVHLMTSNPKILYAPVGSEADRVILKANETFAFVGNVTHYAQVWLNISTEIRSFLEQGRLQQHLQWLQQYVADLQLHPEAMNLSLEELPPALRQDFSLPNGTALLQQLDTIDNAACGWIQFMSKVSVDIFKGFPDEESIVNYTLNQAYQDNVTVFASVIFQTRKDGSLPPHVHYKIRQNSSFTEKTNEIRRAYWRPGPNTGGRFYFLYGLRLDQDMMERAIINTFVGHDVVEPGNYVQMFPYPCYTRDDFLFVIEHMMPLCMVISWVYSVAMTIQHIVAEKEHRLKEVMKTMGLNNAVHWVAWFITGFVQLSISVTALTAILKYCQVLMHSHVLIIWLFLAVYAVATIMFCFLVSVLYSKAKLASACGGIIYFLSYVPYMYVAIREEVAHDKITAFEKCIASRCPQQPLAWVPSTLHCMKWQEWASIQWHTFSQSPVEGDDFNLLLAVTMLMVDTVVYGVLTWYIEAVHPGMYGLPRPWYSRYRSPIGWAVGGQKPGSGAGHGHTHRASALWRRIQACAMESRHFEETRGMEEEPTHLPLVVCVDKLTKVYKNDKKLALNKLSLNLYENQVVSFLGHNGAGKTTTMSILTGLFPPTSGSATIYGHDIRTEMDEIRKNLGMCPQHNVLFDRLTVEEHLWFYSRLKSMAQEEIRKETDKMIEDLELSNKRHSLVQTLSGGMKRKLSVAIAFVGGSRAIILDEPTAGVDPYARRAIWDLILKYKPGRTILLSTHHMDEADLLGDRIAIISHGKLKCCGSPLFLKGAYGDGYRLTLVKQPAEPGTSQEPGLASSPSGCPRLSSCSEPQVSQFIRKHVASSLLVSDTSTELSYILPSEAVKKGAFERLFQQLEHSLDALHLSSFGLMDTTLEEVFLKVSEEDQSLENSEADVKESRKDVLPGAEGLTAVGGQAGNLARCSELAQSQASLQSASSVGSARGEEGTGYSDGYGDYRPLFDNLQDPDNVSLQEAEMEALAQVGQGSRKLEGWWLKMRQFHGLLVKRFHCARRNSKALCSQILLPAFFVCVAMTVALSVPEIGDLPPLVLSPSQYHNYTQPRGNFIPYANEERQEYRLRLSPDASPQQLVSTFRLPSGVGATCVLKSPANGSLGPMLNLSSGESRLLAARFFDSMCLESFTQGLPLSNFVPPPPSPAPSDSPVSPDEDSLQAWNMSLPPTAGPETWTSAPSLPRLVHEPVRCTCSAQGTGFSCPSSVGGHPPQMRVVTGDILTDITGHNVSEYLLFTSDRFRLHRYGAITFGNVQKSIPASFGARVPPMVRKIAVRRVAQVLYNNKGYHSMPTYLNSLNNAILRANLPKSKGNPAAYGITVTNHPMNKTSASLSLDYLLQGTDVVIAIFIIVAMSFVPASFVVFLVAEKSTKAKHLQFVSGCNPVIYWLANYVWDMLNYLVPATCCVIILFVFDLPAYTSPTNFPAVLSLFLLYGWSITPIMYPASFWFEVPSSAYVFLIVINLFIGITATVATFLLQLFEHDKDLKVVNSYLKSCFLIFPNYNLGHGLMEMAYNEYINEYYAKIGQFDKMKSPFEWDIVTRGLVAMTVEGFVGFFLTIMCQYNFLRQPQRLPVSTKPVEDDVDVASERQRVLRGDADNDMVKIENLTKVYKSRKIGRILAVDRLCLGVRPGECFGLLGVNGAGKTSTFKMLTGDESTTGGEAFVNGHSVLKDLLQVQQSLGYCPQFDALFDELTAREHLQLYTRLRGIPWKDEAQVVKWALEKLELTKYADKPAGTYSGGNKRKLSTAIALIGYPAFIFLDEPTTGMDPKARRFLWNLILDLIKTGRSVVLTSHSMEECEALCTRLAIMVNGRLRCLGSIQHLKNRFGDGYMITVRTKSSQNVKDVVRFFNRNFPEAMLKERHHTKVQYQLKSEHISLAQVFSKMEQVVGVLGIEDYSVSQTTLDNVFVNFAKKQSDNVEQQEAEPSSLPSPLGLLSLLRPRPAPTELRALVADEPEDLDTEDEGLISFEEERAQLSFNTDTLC
# UniProt P49443: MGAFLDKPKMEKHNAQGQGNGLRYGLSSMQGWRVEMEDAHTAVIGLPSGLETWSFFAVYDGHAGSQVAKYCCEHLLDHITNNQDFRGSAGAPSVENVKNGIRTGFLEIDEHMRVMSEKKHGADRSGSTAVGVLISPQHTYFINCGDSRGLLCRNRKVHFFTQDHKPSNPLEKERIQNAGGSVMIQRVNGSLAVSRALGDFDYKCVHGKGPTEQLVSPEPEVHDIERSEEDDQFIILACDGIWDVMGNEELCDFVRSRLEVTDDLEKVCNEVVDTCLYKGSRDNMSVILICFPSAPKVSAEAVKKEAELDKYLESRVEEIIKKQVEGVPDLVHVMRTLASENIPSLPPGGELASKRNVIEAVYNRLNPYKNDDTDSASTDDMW
# Some of the results follow. Most entries show no effect beyond the scatter of the controls.
# Compound: CN[C@@H]1C[C@H]2O[C@@](C)([C@@H]1OC)n1c3ccccc3c3c4c(c5c6ccccc6n2c5c31)C(=O)NC4 [staurosporine]
# Assay: log2 fold change of tryptic peptide abundance, ligand vs vehicle (limited proteolysis) (log2 ratio); higher = more trypsin-susceptible (destabilized)
# Settings: ligand concentration: 20 uM; sample: mouse liver crude lysate; replicate design: treated separately
row,Target,log2 fold change
1,"UniProt P49813 (peptide sequence: DREDLVPYTGEKR, peptide start residue: 80)",0.246
2,"UniProt P46664 (peptide sequence: GLDGWEKR, peptide start residue: 119)",0.283
3,"UniProt P41593 (peptide sequence: AGLSLPLSPR, peptide start residue: 512)",-0.15
4,"UniProt P52432 (peptide sequence: VVLGEFGVR, peptide start residue: 14)",-0.0759
5,"UniProt P48453 (peptide sequence: AHEAQDAGYR, peptide start residue: 280)",0.287
6,"UniProt P46938 (peptide sequence: NINPSTANAPKCQELALR, peptide start residue: 317)",-0.198
7,"UniProt P47915 (peptide sequence: SQRYESLK, peptide start residue: 26)",-0.24
8,"UniProt P35918 (peptide sequence: LSPSFGGMMPSK, peptide start residue: 1276)",-0.108
9,"UniProt P47856 (peptide sequence: SEHKLSTDHIPILYR, peptide start residue: 213)",0.217
10,"UniProt P53810 (peptide sequence: QKDPVKGMTADD, peptide start residue: 260)",-0.585
11,"UniProt P48678 (peptide sequence: SYLLGNSSPR, peptide start residue: 646)",0.286
12,"UniProt P48776 (peptide sequence: MNPIIHK, peptide start residue: 381)",-0.426
13,"UniProt P35951 (peptide sequence: SQDGYTYPSR, peptide start residue: 843)",0.0654
14,"UniProt P42128 (peptide sequence: NGVFVDGAFQR, peptide start residue: 152)",-0.359
15,"UniProt P51450 (peptide sequence: TEVQGASCHLEYSPER, peptide start residue: 191)",-0.523
16,"UniProt P50544 (peptide sequence: TQFGDKIHNFGVIQEK, peptide start residue: 368)",-0.357
17,"UniProt P53349 (peptide sequence: MMGHLNHPNIIR, peptide start residue: 1278)",0.508
18,"UniProt P35456 (peptide sequence: SLKDEDYTR, peptide start residue: 158)",-0.369
19,"UniProt P43276 (peptide sequence: ALAAGGYDVEKNNSR, peptide start residue: 65)",-0.118
20,"UniProt P47758 (peptide sequence: SAAPSTLDSSSTAPAQLGKK, peptide start residue: 207)",-0.0991

# A section taken from the entries so far:
row,Target,log2 fold change
14,"UniProt P42128 (peptide sequence: NGVFVDGAFQR, peptide start residue: 152)",-0.359
15,"UniProt P51450 (peptide sequence: TEVQGASCHLEYSPER, peptide start residue: 191)",-0.523
16,"UniProt P50544 (peptide sequence: TQFGDKIHNFGVIQEK, peptide start residue: 368)",-0.357

# (further entries)

row,Target,log2 fold change
1,"UniProt P49586 (peptide sequence: SIDLIQKWEEK, peptide start residue: 271)",-0.247
2,"UniProt P53996 (peptide sequence: GGHIAKDCKEPK, peptide start residue: 81)",-0.337
3,"UniProt P48377 (peptide sequence: SVVQATPQTK, peptide start residue: 240)",-0.331
4,"UniProt P41234 (peptide sequence: VLRGDADNDMVK, peptide start residue: 2041)",0.492
5,"UniProt P45377 (peptide sequence: ELFPKDDQGR, peptide start residue: 121)",0.0952
6,"UniProt P48410 (peptide sequence: DAGIALLSITHRPSLWK, peptide start residue: 649)",0.143
7,"UniProt P42225 (peptide sequence: KILENAQR, peptide start residue: 114)",-0.111
8,"UniProt P45878 (peptide sequence: GAPPKIPGGATLVFEVELLK, peptide start residue: 114)",0.319
9,"UniProt P35569 (peptide sequence: SRTESITATSPASMVGGKPGSFR, peptide start residue: 298)",-0.309
10,"UniProt P35564 (peptide sequence: TDAPQPDVKDEEGKEEEK, peptide start residue: 518)",0.225
11,"UniProt P43120 (peptide sequence: FSNDQTVELEK, peptide start residue: 145)",-0.129
12,"UniProt P46662 (peptide sequence: YGDYDPSVHKR, peptide start residue: 150)",0.555
13,"UniProt P51655 (peptide sequence: MIYCSHCR, peptide start residue: 251)",-0.321
14,"UniProt P42230 (peptide sequence: LGHYATQLQNTYDRCPMELVR, peptide start residue: 87)",0.603
15,"UniProt P38533 (peptide sequence: SSVVQHVSEEGR, peptide start residue: 420)",-0.718
16,"UniProt P43025 (peptide sequence: MDVLAQEVALLK, peptide start residue: 51)",-0.203
17,"UniProt P35922 (peptide sequence: VGPNSSEEKK, peptide start residue: 345)",-0.154
18,"UniProt P49443 (peptide sequence: HNAQGQGNGLR, peptide start residue: 13)",0.545
19,"UniProt P50294 (peptide sequence: TAFGISLER, peptide start residue: 269)",-0.0192
